From PubChem BioAssay AID540275 (National Center for Advancing Translational Sciences (NCATS), 2011)
Among all 320,000 compounds or so, about 620 (0.19%) were called active. Inconclusive means that the source gave no clear call. Such entries were picked first, then a sample of the others. No stated cut-off is given here; in the data, active means activation above about 80%; inconclusive means between about 30% and that limit; inactive means weaker than that.

Amino acid sequences for entries named in this document (tags omitted).
UniProt Q8NER1, whole entry, looked up: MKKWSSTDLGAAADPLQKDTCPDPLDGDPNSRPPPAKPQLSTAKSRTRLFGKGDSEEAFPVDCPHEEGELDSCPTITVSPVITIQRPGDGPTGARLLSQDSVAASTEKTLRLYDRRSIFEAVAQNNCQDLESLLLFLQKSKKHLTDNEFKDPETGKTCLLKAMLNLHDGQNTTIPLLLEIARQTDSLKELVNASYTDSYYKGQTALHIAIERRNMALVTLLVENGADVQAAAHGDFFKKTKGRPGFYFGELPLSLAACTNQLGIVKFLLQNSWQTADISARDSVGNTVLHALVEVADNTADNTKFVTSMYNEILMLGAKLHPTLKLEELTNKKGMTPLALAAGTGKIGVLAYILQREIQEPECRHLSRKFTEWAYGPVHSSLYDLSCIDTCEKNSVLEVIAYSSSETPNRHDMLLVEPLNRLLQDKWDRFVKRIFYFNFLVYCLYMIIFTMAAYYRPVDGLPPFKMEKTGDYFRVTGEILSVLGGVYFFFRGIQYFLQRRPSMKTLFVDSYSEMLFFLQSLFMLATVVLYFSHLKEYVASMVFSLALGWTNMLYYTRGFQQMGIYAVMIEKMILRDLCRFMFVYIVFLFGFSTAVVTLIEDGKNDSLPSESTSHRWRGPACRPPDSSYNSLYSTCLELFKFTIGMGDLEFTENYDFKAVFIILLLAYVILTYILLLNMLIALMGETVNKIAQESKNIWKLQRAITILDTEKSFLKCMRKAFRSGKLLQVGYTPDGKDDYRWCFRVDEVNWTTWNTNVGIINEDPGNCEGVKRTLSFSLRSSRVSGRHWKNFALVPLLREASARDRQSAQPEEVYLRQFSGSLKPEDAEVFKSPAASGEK

Molecular target: Transient receptor potential cation channel subfamily V member 1 (Homo sapiens) (UniProt Q8NER1)
Experiment: HTS Assay for Compounds that Act as Agonists of the Vanilloid Receptor 1; further: 0% is about no effect
Settings: TRPV1-expressing cells, Fluo-8 calcium influx, agonist mode; at 8.33 µM, hits give high values
How it was run: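 Fluo-8 calcium influx in TRPV1-expressing cells, kinetic read (ex 480/em 520 nm). Compound added and read 3 min for agonist activity, followed by capsaicin at EC20 final and 2 min further read for enhancement.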

Q: For `Cc1cccc(CN2CCC(C(=O)Nc3cccc(-c4cccc(F)c4)c3)CC2)n1`, which activation is on record?
A: inactive: 16.1%

Q: Which activation does the source give for `CCc1ccc(NC(=O)c2onc(C)c2Cl)cc1` here?
A: active: 89.4%

Q: With `O=C(COC(=O)Cc1cccs1)NCc1ccc(F)cc1` as the compound, how does the activation read?
A: inconclusive: 48.5%

Q: `CC1=C(C(=O)NC2CCCc3c2cnn3-c2cccc(C)c2C)OCCO1` (stereo unspecified) was tested. Which activation did it give?
A: inactive: 15.6%

Q: With `Cc1ccc(CNC(=O)COC(=O)CSc2ccc(Br)cc2C)cc1` as the compound, how does the activation read?
A: inconclusive: 41.5%

Q: `O=C(CNC(=O)c1cc(Cl)cc([N+](=O)[O-])c1)OCC(=O)N1CCCCC1` was tested. Which activation did it give?
A: inactive: 0.527%

Q: How did the activation turn out when `O=c1cc(CN2CCN(Cc3ccccc3)CC2)c2cc3c(cc2o1)CCC3` was run?
A: inconclusive: 32.8%

Q: `Cc1cccc2nc(COc3ccc4ccccc4c3Br)cn12` was tested. Which activation did it give?
A: inconclusive: 36.8%

Q: How did the activation turn out when `C=CCN(c1ccc(C(=O)Nc2ccc(C)cc2)cc1)S(C)(=O)=O` was run?
A: inconclusive: 36.7%

Q: Which activation does the source give for `CCn1cc(CCCC(=O)NCc2ccc(OC)cc2)c2ccccc21` here?
A: inconclusive: 48.1%

Q: Which activation does the source give for `C[C@H](NC(=O)c1[nH]cnc1C(=O)Nc1ccc(Cl)cc1)c1ccccc1` here?
A: inconclusive: 31.1%

Q: With `Cc1ccc(N=C(NO)c2cnccc2C(F)(F)F)c(C)c1` as the compound, how does the activation read?
A: inactive: 11.6%

Q: Which activation does the source give for `O=C1CSc2ccc(S(=O)(=O)N3CCN(c4ccccc4)CC3)cc2N1` here?
A: inconclusive: 31.2%

Q: How did the activation turn out when `FC(F)(F)c1nc(=S)c2ccccc2[nH]1` was run?
A: inactive: 1.57%

Q: Which activation does the source give for `Cc1cc(C)nc(N2CCC(C(=O)NCc3ccco3)CC2)n1` here?
A: inactive: 1.04%

Q: Which activation does the source give for `CCC(CO)Oc1cc(NC(=O)c2cccc(Cl)c2)c2ncn(C(C)C)c2c1` (stereo unspecified) here?
A: inconclusive: 35%

Q: `Cc1cccc(N2CCN(C(=O)c3ccc4c(c3)OCCO4)CC2C)c1` (stereo unspecified) was tested. Which activation did it give?
A: inconclusive: 47.2%

Q: `COCCCn1c(=O)/c(=C\c2ccccc2OC(C)C)s/c1=C(/C#N)C(=O)Nc1ccc(C(=O)O)cc1` was tested. Which activation did it give?
A: inconclusive: 62.1%

Q: For `O=C(OC1CCCCC1)c1ccc(NC(=O)c2ccco2)cc1`, which activation is on record?
A: inconclusive: 47.4%

Q: Which activation does the source give for `O=C(Nc1ccc(N2CCCC2)cc1)c1ccccc1F` here?
A: inconclusive: 64.8%

Q: `Nc1cc(=O)[nH]c(SCc2cccc3ccccc23)n1` was tested. Which activation did it give?
A: inactive: -4.7%

Q: Which activation does the source give for `CC(C)(C)NC(=O)CCN(/N=C/c1ccccc1)C1=NS(=O)(=O)c2ccccc21` here?
A: inconclusive: 66.9%

Q: With `Cc1ccc(C(=O)NC(=S)NNC(=O)c2ccccc2[N+](=O)[O-])cc1` as the compound, how does the activation read?
A: inactive: 4.82%

Q: How did the activation turn out when `CCCn1c(C(C)Nc2nc(-c3ccc(Cl)c([N+](=O)[O-])c3)cs2)nc2cc(Cl)c(N3CCCCC3)cc21` (stereo unspecified) was run?
A: inconclusive: 42%

Q: `CCN1CCN(S(=O)(=O)c2ccc(Cl)c(C(=O)N(C)C(c3ccccc3)c3ccccc3)c2)CC1` was tested. Which activation did it give?
A: inconclusive: 35%

Q: With `CCOC(=O)Cc1nc(-c2cccc(C(F)(F)F)c2)no1` as the compound, how does the activation read?
A: inconclusive: 67.4%

Q: `Cc1cc(S(=O)(=O)N2CCCCC2)ccc1OCC(=O)N1CCOCC1` was tested. Which activation did it give?
A: inconclusive: 31.2%

Q: With `Cc1ccc2nc3c(cc2c1)c(NC(=O)c1ccco1)nn3CC(C)C` as the compound, how does the activation read?
A: inconclusive: 55.5%

Q: How did the activation turn out when `CCc1ccccc1N/N=C(/C)c1c(O)cc(C)oc1=O` was run?
A: inactive: -0.295%

Q: For `Cc1ccc(S(=O)(=O)N2CCC(=O)N(C(COCc3cccc(C)c3)C(C)C)CC2)cc1` (stereo unspecified), which activation is on record?
A: inconclusive: 34.8%

Q: For `c1ccc(-c2cnnc(N3CCOCC3)n2)cc1`, which activation is on record?
A: inconclusive: 47%

Q: For `CCCCC1NC(=S)N(C2CCCCC2)C1=O` (stereo unspecified), which activation is on record?
A: inconclusive: 32.9%

Q: For `CCOc1ccc(Cl)cc1C1=CC(=O)C[C@H](c2ccc(OC)cc2)C1`, which activation is on record?
A: inconclusive: 30.6%

Q: For `N#Cc1c(N)c(C#N)c(-c2ccc3c(c2)OCO3)c2c1CCCC2`, which activation is on record?
A: inactive: -1.41%

Q: `CCOc1ccccc1NC(=S)N(CCC(C)C)C1CCN(C(C)=O)CC1` was tested. Which activation did it give?
A: inconclusive: 45.7%

Q: How did the activation turn out when `Cc1cccc(NC(=O)c2oc(=O)c3ccccc3c2-c2ccccc2)c1C` was run?
A: inconclusive: 46.3%

Q: How did the activation turn out when `COc1ccccc1NC(=S)NC1CCCCCC1` was run?
A: inactive: 14.9%

Q: For `Cc1ccc(Nc2c([N+](=O)[O-])ccc3c2=NC2(CCCCC2)N=3)cc1`, which activation is on record?
A: inactive: 25.8%

Q: Which activation does the source give for `O=C(/C=C/c1ccc(F)cc1)N1CC[C@@]2(O)CCCC[C@H]2C1` here?
A: inconclusive: 35.3%

Q: Which activation does the source give for `COc1ccc(Nc2nc(N)nc(CN3CCOCC3)n2)cc1` here?
A: inactive: -2.16%

Q: Which activation does the source give for `CC(C)(C)N1C(=O)c2ccc(C(=O)Nc3ccc(-c4nc5ccccc5[nH]4)cc3)cc2C1=O` here?
A: inactive: 1.26%

Q: Which activation does the source give for `COc1ccc(NC(=O)C2CC(=O)N(CCc3ccc(Cl)cc3)C2)cc1` (stereo unspecified) here?
A: inconclusive: 78.6%

Q: With `CCOC(=O)c1cnc(Nc2nc3ccccc3o2)nc1CSC(=S)N(CC)CC` as the compound, how does the activation read?
A: inactive: 7.63%

Q: `Cc1ccc(OCC(=O)N/N=C/C=C/c2ccco2)c(Br)c1` was tested. Which activation did it give?
A: inactive: 2.77%

Q: For `Nc1ccc(C(=O)N2N=C(c3ccccc3)CC2(O)C(F)(F)F)cc1` (stereo unspecified), which activation is on record?
A: inactive: 23.1%

Q: `CCOC(=O)N1CCC(n2c(SCC(=O)N3CCC(C)CC3)nc3ccccc3c2=O)CC1` was tested. Which activation did it give?
A: active: 81.2%

Q: Which activation does the source give for `Cc1c(Cl)cccc1NC(=O)COC(=O)Cc1ccsc1` here?
A: inconclusive: 40.9%

Q: `CCCCN(CC)S(=O)(=O)N1CCC(C(=O)NCc2ccc(F)cc2)CC1` was tested. Which activation did it give?
A: inconclusive: 53.1%

Q: With `CCOC(=O)c1[nH]c(C)c(C(=O)Nc2ccccc2F)c1C` as the compound, how does the activation read?
A: inconclusive: 52.1%

Q: With `Cc1ccc(C)c(S(=O)(=O)N2CCCOC2CNC(=O)C(=O)NC2CCCC2)c1` (stereo unspecified) as the compound, how does the activation read?
A: inactive: 1.96%

Q: With `CCCCOc1ccccc1C1C(C(=O)OC)=CN(CC)C=C1C(=O)OC` as the compound, how does the activation read?
A: inconclusive: 36.5%

Q: `CCc1ccc(NC(=O)c2cnc3n(c2=O)CCS3)cc1` was tested. Which activation did it give?
A: inconclusive: 47.1%

Q: How did the activation turn out when `O=C(Nc1ccc(Oc2ccccc2)cc1)C1CC1` was run?
A: inconclusive: 31.8%

Q: How did the activation turn out when `CCCCC(CC)CNC(=O)/C=C/c1ccc(F)cc1` (stereo unspecified) was run?
A: inconclusive: 63.2%

Q: Which activation does the source give for `Cn1cccc1C(=O)NC(=O)COC(=O)CC12CC3CC(CC(Br)(C3)C1)C2` here?
A: inconclusive: 32.3%

Q: Which activation does the source give for `CC(C)(C)c1ccc(OCCNC(=O)Cc2ccc(F)cc2)cc1` here?
A: active: 90.6%

Q: Which activation does the source give for `O=C(COC(=O)CSc1ccc(Br)cc1)NCc1ccco1` here?
A: inconclusive: 35.4%

Q: Which activation does the source give for `O=C(NCc1ccco1)c1ccc(COc2ccccc2Cl)cc1` here?
A: inconclusive: 31.7%

Q: `Cc1cccc(OC(C)C(=O)Nc2ccc(S(=O)(=O)N3CCCC3)cc2)c1` (stereo unspecified) was tested. Which activation did it give?
A: inconclusive: 31.8%

Q: How did the activation turn out when `COc1ccc(CN2CCC(C(=O)c3ccc(F)cc3)CC2)cc1` was run?
A: inactive: 21.3%

Q: `O=C(c1cccc(S(=O)(=O)N2CCCCC2)c1)N(CCc1ccccc1)Cc1ccccc1` was tested. Which activation did it give?
A: inconclusive: 44.4%

Q: `COc1ccc(N2CCN(C(=O)CCS(=O)(=O)c3ccc4c(c3)NC(=O)C(C)S4)CC2)cc1` (stereo unspecified) was tested. Which activation did it give?
A: inactive: 2.95%

Q: How did the activation turn out when `CN1CCN(C(=O)c2cc(COc3ccccc3)on2)[C@@H](c2ccccc2)C1` was run?
A: inconclusive: 47.4%

Q: For `CCOC(=O)C1=C2c3ccc4ccccc4c3CC(C)(C)N2C(=O)C1=O`, which activation is on record?
A: inconclusive: 31.9%

Q: With `Cc1cc(C(=O)NCC23CC4CC(CC(C4)C2)C3)c(C)o1` as the compound, how does the activation read?
A: inconclusive: 36.7%

Q: `CCOc1ccc(CN(CCO)CCO)cc1[N+](=O)[O-]` was tested. Which activation did it give?
A: inactive: -2.23%

Q: With `CCN(CC)CCSc1nc2ccccc2n1Cc1ccccc1` as the compound, how does the activation read?
A: inactive: 5.28%

Q: With `Cc1nc2ccccn2c1C(=O)NNC(=S)Nc1ccccc1` as the compound, how does the activation read?
A: inactive: -0.218%

Q: How did the activation turn out when `CCOc1ccc(N2C(=O)CC(Sc3ncccn3)C2=O)cc1` (stereo unspecified) was run?
A: inactive: -0.102%

Q: For `Cc1cccc(/C=C(\c2nc3ccccc3[nH]2)S(=O)(=O)c2ccccc2)c1`, which activation is on record?
A: inactive: -3.69%

Q: For `COc1ccc(CC(=O)NNC(=O)COc2ccc(C)cc2)cc1S(=O)(=O)N1CCOCC1`, which activation is on record?
A: inactive: -0.925%

Q: With `Cc1ccc2c(C)c(C(=O)NCc3ccc(S(N)(=O)=O)cc3)oc2c1` as the compound, how does the activation read?
A: inconclusive: 47.2%

Q: With `CCc1ccc(CN(C)C(=O)c2cc(S(=O)(=O)N3CCOCC3)ccc2N2CCCC2)cc1` as the compound, how does the activation read?
A: inconclusive: 30.7%

Q: With `Cc1cccc(C(=O)Nc2ccc3c(c2)C(=O)NC3=O)c1` as the compound, how does the activation read?
A: inconclusive: 33%

Q: Which activation does the source give for `OC(CNC1CCCc2ccccc21)COc1ccc2ccccc2c1` (stereo unspecified) here?
A: inactive: 2.24%

Q: Which activation does the source give for `CCOc1ccc(-c2nnc(-c3cccs3)o2)cc1OCC` here?
A: inconclusive: 42%

Q: Which activation does the source give for `COC(=O)c1ccc(Cn2nc(C)c([N+](=O)[O-])c2C)o1` here?
A: inconclusive: 32.8%

Q: Which activation does the source give for `CN(CC1CCCO1)S(=O)(=O)c1ccc(C(=O)Nc2ccc3c(c2)OCO3)cc1` (stereo unspecified) here?
A: inconclusive: 44.9%

Q: Which activation does the source give for `O=S1(=O)c2cccc3cccc(c23)N1CCBr` here?
A: inactive: -4.67%

Q: With `COc1ccc(C(C)NC(=S)NCc2ccc(F)cc2)cc1OC` (stereo unspecified) as the compound, how does the activation read?
A: inconclusive: 50.1%

Q: `CCOc1ccc(-c2c(C(=O)N/N=C(\C)c3ccccc3OC)nnn2-c2nonc2N)cc1` was tested. Which activation did it give?
A: inactive: 6.67%

Q: How did the activation turn out when `CCC(Cc1ccccc1)NC(=O)Cn1cccc1C(=O)c1ccccc1` (stereo unspecified) was run?
A: inactive: 28.1%

Q: With `COc1cccc(N2CCN(C(=O)Nc3ccc4c(c3)NC(=O)CO4)CC2)c1` as the compound, how does the activation read?
A: inconclusive: 65.4%

Q: Which activation does the source give for `CCOc1ccccc1NC(=O)CCCNC(=O)c1ccc(Cl)cc1` here?
A: inconclusive: 38.2%

Q: Which activation does the source give for `COCCOC(=O)c1cc(C(=O)c2cc(F)ccc2O)coc1=N` here?
A: inactive: -2.17%

Q: Which activation does the source give for `Cc1ccc(OCc2cc(C(=O)N(C)CCc3ccccc3)no2)cc1C` here?
A: inconclusive: 34.7%

Q: Which activation does the source give for `O=C(Nc1ccc2c(c1)OCO2)c1ccc2c(c1)OCO2` here?
A: inconclusive: 57%

Q: With `FC(F)(F)c1cccc(NC(=S)NCC2COc3ccccc3O2)c1` (stereo unspecified) as the compound, how does the activation read?
A: inconclusive: 79%

Q: How did the activation turn out when `C/C(=N\Nc1ccc2nncn2n1)c1cccs1` was run?
A: inconclusive: 55.6%

Q: Which activation does the source give for `Cc1ccc2cc(C#N)c(NCCNC(=O)C3CCC3)nc2c1C` here?
A: inconclusive: 34.8%

Q: How did the activation turn out when `COc1cccc(NC(=O)N2CCN(c3ccc(C(F)(F)F)cn3)CC2)c1` was run?
A: inconclusive: 55.9%
